This is one part of the list. Further columns of the screen follow, without active or inactive calls. Compounds called inactive in the main read-out are mostly missing here. Potencies come from curve fits of mixed quality, noted in brackets.
Test: qHTS Assay for Lipid Storage Modulators in Drosophila S3 Cells;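 as to cell number change: cells counted by Cell Tracker Red CMTPX staining in the red channel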
Details: BODIPY lipid droplet fluorescence, 18-24 h; for cell number change: measured here: cell count max response, cells fed with added oleic acid
Summary of the method: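 Laser-scanning cytometry quantifies lipid droplet accumulation (500–530 nm total intensity; droplet/cell object ratio) in oleic acid-fed (400 uM added) Drosophila S3 cells treated with a concentration series. 20 uM Triacsin C defined 100% inhibition.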

[1] = measured here: lipid fluorescence (Fed channel) AC50, cells fed with added oleic acid
[2] = measured here: cell number channel AC50, cells fed with added oleic acid

Compound | cell number change [%] | AC50 [1] | AC50 [2]
COc1cccc(OCC(=O)Nc2ccccc2-c2ccccc2)c1 | 19.8 | 1.84 µM [rising, partial curve] | –
Cc1ccc(-c2ccc(S(=O)(=O)Nc3cccnc3)cc2)cc1 | 17.6 | 29.1 µM [falling, single point] | –
CCn1c(=NC(=O)CCS(=O)(=O)c2ccccc2)sc2cccc(OC)c21 | -33.2 | 29.1 µM [falling, single point] | 8.2 µM [falling, partial curve, poor fit]
Cc1csc(-c2cnn(-c3ccccc3)c2NC(=O)c2cccc(C(F)(F)F)c2)n1 | 27.6 | – | –
FC(F)(F)c1cnc(-c2cnc(-c3ccccn3)nc2)c(Cl)c1 | 73.5 | 29.1 µM [rising, single point] | 29.1 µM [rising, single point]
O=C(Nc1cccc(NC(=O)c2ccccc2Cl)c1)c1cccs1 | -48.6 | 0.0058 µM [falling, full curve, poor fit] | 20.6 µM [falling, partial curve, poor fit]
CCN(CC(=O)O)S(=O)(=O)c1cc(Cl)ccc1Cl | 2.42 | – | –
COCCNS(=O)(=O)c1cccc2cccnc12 | 0.451 | 6.51 µM [falling, single point] | –
Cc1oc(-c2ccccc2Cl)nc1CS(=O)(=O)CC(=O)NCCN1CCOCC1 | 4.61 | 0.259 µM [rising, full curve, poor fit] | –
O=C1N(c2ccccc2C(F)(F)F)O[C@@]1(c1ccccc1)C1CCCCC1 | -31.5 | 1.03 µM [falling, full curve, poor fit] | 1.03 µM [falling, full curve, poor fit]
Cc1nonc1NC(=O)CSc1nc2c(C)cccc2cc1C#N | – | 4.61 µM [rising, single point] | –
O=C(CCC(=O)N1CCOCC1)NCCc1ccccc1 | 1.93 | 16.4 µM [rising, single point] | –
Clc1ccc2[nH]c3c(NCCN4CCOCC4)ncnc3c2c1 | – | 0.731 µM [rising, single point] | 1.84 µM [rising, partial curve]
CCOC(=O)Cc1csc(NC(=O)C2CCCN(S(=O)(=O)c3cnc[nH]3)C2)n1 (configuration not stated) | 51.1 | – | 32.6 µM [rising, single point]
Cc1ccc(C(=O)NCCSCc2ccccc2)cc1[N+](=O)[O-] | 34.3 | 0.116 µM [rising, full curve, poor fit] | 16.4 µM [rising, partial curve, poor fit]
C/C(=N/N1CCN(c2ccccn2)CC1)c1cccc([N+](=O)[O-])c1 | -1.41 | – | –
O=C(NN=C1CCCCC1)c1ccccc1-n1cccc1 | 28.2 | 35.5 µM [rising, partial curve] | –
CC(C)(C)N(Cc1nc(-c2ccccc2)no1)C(=O)c1ccc2c(c1)OCO2 | 7.14 | 6.51 µM [rising, single point] | –
Cc1ccnc(NC(=O)Cn2cc([N+](=O)[O-])cn2)c1 | -26.4 | 0.206 µM [falling, full curve] | 0.116 µM [falling, full curve, poor fit]

Compound | cell number change [%] | AC50 [1] | AC50 [2]
Cc1ccc(/C(O)=C/c2nc3ccccc3oc2=O)cc1 | -4.7 | – | –
COc1ccc(C2N(c3cc(Cl)ccc3OC)C(=O)C3CCCN32)c(OC)c1 (configuration not stated) | -18.5 | – | –
Cc1ccc(-n2nnnc2SCC(=O)Nc2ccc(N3CCN(C)CC3)cc2)c(C)c1 | 32.7 | 18.4 µM [rising, partial curve] | 29.1 µM [rising, single point]
O=C(Nc1cccc(-c2ccc(N3CCCCC3)nn2)c1)c1ccco1 | – | 0.92 µM [rising, partial curve] | 0.411 µM [rising, full curve]
CCOc1ccc(CCNC(=O)CN2CCN(Cc3ccccc3F)C2=O)cc1OCC | -26.3 | 23.1 µM [falling, partial curve, poor fit] | –
Cc1ccc(C)c(OCC(=O)NC2CCCCCC2)c1 | -23.8 | 29.1 µM [falling, single point] | –
COC(=O)c1[nH]c2ccc(F)cc2c1NC(=O)CCN1CCN(Cc2ccc3c(c2)OCO3)CC1 | -24.6 | 0.366 µM [rising, partial curve] | –
COc1ccc(-c2noc(CNC(=O)c3ccc4c(c3)OCO4)n2)cc1 | 33.6 | 29.1 µM [rising, single point] | 0.00517 µM [rising, full curve, poor fit]
CNCCCNC(=O)c1ccc(/C=N/O)nc1 | 5.49 | – | 6.51 µM [falling, single point]
O=C(CCS(=O)(=O)c1cccc2nonc12)Nc1ccc(Br)cc1 | 25.2 | 0.58 µM [falling, single point] | –
CCn1c(=O)c(C)nn2c3ccccc3nc12 | – | – | 1.3 µM [rising, full curve]
O=C(Nc1ccc(Cc2ccncc2)cc1)c1ccc(S(=O)(=O)N2CCCC2)cc1 | -11.2 | 2.06 µM [rising, partial curve] | –
NC(=O)c1ccccc1OCCOc1ccc(Br)cc1 | 8.82 | 6.51 µM [rising, single point] | –
O=C(O)c1cccc(C(=O)O)c1Br | 4.53 | – | –
Cc1cccc(C(=O)OCC(=O)c2ccc3c(c2)OCO3)c1O | -38.1 | 29.1 µM [falling, single point] | 29.1 µM [falling, single point]
CN(C(=O)CC1C(=O)NCCN1Cc1ccc(F)c(F)c1)C1CCCCC1 (configuration not stated) | 4.53 | – | 1.16 µM [rising, full curve, poor fit]
O=C(NC1CCCC1)C(c1ccncc1)N(Cc1ccccc1)C(=O)c1ccc(-c2ccccc2)[nH]1 (configuration not stated) | -7.33 | 9.2 µM [rising, partial curve] | –
Cc1ccccc1NC1=C(Cl)C(=O)OC1OC(=O)c1ccco1 (configuration not stated) | -4.63 | – | –
Clc1ccc(-c2nc3ccccc3n2OCc2ccccc2)cc1 | -35.6 | 5.8 µM [falling, full curve] | 29.1 µM [falling, single point]

As entered above.
Entry for O=C(Nc1ccc(Cc2ccncc2)cc1)c1ccc(S(=O)(=O)N2CCCC2)cc1 under cell number change [%]: -11.2
Entry for COCCNS(=O)(=O)c1cccc2cccnc12 under AC50 [1]: 6.51 µM [falling, single point]
